This is one part of the list.

Protein sequences, listed by entry. Tags and fused reporters are not part of them. Lines headed by an entry give the natural chain unless they say otherwise; changes in a name come on top.
UniProt Q9HC16: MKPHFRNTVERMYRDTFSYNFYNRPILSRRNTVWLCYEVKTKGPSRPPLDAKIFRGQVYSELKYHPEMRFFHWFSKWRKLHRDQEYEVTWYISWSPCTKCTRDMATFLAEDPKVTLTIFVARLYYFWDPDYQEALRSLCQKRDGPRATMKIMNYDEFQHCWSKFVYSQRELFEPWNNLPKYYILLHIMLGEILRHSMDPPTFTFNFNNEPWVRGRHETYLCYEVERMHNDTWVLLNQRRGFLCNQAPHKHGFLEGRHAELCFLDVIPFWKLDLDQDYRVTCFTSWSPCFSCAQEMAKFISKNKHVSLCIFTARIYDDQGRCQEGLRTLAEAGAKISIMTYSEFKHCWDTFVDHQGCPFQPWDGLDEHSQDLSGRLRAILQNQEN
UniProt Q9Y4X5: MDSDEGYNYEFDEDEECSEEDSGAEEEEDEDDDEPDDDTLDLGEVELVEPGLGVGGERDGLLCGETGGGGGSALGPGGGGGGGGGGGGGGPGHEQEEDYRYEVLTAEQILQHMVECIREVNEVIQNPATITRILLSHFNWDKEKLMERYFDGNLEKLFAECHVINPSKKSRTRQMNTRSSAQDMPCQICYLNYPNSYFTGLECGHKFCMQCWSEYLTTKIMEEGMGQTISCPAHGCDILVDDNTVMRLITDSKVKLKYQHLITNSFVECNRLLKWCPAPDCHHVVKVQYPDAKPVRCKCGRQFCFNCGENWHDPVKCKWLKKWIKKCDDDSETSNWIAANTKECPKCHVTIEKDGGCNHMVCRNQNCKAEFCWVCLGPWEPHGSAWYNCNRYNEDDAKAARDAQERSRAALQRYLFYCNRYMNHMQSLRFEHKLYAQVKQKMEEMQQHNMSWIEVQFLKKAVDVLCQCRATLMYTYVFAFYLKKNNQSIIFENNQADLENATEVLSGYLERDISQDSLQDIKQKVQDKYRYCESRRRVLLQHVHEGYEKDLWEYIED
UniProt Q68CP9, whole entry, looked up: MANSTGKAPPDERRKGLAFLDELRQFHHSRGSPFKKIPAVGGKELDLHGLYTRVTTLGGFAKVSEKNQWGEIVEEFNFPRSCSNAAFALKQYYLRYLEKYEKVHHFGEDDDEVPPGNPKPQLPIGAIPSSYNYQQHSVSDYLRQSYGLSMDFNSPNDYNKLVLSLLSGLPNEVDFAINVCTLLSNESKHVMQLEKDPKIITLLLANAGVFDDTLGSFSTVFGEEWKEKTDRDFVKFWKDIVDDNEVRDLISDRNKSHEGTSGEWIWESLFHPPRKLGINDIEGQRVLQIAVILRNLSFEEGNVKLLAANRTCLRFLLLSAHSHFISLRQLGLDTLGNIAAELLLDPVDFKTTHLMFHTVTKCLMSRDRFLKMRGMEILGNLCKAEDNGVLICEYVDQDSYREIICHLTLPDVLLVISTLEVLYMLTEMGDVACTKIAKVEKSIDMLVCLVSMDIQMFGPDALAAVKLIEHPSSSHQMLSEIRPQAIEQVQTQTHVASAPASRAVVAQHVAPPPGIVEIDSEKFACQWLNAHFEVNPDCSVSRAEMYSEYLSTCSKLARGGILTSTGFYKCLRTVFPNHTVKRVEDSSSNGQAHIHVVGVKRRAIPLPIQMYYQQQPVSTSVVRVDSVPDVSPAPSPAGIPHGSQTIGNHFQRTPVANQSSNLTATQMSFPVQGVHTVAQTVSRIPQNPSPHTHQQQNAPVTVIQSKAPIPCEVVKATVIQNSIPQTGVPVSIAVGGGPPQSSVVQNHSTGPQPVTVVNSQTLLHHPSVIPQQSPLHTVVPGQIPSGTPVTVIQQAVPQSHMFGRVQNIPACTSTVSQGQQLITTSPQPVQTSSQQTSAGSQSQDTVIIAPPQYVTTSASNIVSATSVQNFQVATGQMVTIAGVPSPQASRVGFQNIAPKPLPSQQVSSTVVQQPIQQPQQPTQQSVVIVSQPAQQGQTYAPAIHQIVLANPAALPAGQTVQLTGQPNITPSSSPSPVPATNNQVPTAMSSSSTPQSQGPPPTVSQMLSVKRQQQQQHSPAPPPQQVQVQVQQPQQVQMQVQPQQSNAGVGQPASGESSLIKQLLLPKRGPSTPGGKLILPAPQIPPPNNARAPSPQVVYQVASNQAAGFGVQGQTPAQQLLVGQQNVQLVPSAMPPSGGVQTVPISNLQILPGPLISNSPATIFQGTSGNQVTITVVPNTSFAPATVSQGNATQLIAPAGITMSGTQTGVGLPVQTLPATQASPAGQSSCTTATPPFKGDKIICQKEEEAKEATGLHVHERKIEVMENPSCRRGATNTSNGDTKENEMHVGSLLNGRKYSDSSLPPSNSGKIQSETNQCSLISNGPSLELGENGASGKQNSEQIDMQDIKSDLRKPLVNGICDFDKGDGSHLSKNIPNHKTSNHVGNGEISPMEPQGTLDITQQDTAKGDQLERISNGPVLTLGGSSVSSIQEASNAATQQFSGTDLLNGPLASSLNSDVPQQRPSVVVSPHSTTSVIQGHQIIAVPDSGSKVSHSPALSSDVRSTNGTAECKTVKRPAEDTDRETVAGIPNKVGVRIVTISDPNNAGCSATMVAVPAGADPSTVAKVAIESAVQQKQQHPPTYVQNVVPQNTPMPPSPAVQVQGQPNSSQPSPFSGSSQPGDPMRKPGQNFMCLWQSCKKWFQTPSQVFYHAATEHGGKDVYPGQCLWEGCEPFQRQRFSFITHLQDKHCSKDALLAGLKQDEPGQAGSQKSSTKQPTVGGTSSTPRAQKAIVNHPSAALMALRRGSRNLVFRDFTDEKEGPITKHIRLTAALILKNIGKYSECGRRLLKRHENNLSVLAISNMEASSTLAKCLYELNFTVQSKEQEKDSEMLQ
UniProt Q9Y6D6: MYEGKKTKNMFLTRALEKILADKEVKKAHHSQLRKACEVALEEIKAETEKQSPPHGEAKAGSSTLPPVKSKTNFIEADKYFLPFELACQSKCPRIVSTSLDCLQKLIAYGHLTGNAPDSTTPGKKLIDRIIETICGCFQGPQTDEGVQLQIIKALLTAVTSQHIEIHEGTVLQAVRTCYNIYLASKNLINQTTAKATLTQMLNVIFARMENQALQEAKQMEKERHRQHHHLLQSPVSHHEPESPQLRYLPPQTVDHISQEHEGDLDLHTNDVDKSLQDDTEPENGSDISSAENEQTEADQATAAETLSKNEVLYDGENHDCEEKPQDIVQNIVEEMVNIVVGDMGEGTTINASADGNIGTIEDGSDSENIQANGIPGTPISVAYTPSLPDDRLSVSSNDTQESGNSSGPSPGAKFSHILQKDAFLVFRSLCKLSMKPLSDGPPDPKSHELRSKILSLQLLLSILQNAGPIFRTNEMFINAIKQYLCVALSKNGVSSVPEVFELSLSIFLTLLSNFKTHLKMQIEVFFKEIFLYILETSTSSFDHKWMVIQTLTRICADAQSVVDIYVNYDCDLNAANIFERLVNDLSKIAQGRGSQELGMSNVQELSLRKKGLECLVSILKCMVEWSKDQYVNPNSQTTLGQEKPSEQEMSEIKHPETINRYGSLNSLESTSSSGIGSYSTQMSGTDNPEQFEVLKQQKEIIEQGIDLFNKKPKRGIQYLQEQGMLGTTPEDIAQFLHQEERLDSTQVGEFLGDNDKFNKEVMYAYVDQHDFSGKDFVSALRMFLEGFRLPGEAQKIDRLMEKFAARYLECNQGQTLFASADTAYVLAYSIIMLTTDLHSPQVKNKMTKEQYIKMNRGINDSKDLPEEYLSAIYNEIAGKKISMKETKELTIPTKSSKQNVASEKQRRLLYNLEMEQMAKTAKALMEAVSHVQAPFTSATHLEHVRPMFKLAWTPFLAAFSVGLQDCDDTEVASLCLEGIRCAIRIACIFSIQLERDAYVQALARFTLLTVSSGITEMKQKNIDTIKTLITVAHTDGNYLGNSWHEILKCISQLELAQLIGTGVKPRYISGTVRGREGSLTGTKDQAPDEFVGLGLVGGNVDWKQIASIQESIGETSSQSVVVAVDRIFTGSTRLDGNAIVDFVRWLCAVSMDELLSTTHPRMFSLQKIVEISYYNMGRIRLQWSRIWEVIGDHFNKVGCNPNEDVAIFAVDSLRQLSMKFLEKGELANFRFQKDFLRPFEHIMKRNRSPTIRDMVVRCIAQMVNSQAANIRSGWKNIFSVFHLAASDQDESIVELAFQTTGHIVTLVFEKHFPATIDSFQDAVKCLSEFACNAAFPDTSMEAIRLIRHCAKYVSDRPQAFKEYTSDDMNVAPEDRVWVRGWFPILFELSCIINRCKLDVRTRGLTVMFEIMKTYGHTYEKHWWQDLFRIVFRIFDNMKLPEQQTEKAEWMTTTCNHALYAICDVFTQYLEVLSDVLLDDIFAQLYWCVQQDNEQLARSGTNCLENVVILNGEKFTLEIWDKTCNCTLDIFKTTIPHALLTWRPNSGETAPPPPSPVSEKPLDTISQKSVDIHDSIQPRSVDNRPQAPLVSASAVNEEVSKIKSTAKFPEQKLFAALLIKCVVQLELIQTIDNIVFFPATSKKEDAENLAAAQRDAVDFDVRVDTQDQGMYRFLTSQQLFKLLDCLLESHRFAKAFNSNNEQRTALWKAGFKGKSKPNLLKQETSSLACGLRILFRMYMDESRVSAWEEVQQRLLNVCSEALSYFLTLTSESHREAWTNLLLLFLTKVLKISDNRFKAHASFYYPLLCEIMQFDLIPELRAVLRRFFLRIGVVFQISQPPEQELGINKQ
UniProt O14727: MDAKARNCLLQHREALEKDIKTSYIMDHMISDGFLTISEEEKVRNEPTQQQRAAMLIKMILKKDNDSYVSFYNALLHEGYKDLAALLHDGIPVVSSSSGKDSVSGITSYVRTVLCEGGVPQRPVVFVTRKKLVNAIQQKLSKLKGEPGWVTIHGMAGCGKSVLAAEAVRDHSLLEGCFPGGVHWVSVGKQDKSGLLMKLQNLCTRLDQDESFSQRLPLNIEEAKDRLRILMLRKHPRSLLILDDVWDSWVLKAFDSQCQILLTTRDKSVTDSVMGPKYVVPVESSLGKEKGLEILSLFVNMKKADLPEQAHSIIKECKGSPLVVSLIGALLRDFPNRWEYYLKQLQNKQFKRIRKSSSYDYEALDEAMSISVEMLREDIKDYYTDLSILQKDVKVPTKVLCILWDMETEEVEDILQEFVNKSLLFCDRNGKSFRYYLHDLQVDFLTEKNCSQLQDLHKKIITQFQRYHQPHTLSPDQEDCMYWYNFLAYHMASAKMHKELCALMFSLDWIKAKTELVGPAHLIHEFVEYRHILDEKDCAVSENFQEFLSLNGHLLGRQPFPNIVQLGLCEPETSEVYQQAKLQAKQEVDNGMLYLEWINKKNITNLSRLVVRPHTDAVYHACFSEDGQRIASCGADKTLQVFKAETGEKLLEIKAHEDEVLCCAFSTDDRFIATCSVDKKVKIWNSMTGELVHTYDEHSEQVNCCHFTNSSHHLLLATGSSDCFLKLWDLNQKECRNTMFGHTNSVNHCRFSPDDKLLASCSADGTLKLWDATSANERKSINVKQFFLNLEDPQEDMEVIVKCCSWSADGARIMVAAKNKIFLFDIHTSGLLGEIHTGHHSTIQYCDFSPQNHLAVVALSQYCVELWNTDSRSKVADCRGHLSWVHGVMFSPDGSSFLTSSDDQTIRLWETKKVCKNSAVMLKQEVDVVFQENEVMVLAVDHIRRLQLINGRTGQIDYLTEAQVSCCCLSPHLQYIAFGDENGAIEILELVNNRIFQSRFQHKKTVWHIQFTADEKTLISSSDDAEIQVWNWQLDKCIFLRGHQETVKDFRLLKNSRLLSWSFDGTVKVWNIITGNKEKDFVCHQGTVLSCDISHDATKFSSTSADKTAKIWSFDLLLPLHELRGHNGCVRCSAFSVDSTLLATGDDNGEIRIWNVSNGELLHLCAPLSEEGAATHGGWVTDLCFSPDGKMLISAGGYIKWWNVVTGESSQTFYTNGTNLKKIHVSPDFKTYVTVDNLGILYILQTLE
UniProt Q9H0R1: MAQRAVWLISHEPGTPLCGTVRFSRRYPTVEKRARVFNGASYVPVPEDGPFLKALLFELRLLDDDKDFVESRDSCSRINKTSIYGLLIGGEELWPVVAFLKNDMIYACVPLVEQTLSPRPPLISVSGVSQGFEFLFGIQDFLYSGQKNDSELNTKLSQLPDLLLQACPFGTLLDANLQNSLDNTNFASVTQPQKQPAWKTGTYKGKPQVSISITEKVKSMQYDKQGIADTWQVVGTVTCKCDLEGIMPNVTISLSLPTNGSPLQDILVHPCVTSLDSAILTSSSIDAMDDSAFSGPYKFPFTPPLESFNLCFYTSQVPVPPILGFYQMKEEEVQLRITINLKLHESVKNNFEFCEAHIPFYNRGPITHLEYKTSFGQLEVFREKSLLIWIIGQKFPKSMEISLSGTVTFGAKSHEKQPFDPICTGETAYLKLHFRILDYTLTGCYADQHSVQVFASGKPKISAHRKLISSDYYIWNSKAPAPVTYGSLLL
UniProt Q9NRW3: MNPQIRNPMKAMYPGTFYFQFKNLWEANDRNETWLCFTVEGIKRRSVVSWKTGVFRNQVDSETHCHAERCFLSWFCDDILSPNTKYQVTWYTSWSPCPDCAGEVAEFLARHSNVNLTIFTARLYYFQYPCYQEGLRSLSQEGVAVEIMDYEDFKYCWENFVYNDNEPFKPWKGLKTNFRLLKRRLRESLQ

The source of these data is the supplement of paper PMC10849652.

Compound in one test: CS(=O)(=O)CCNCc1ccc(-c2ccc3ncnc(Nc4ccc(OCc5cccc(F)c5)c(Cl)c4)c3c2)o1 [lapatinib]
Kind of test: log2 fold change, soluble protein after heating vs DMSO (PISA); higher = thermal stabilisation; K562 lysate, 10 uM; active = over 0.2 and 3.5 SD of the protein, either way, in both replicates (recomputed). In a few lines:
(§1)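 Dounce homogenisation of K562 pellets in PBS pH 7.4 with 1 mM MgCl2 produced a crude extract, used at 1 mg/mL protein. Exposure to 10 μM compound lasted 30 min, and aliquots were then heated for 3 min across 48°C-58°C, pooled and brought to 0.5% NP-40 at 4°C. The supernatant after 21,000xg for 90 min was quantified by TMTpro 16plex LC-MS/MS with channel sums equalised. Duplicate values are given as log-two fold change in thermal stability relative to solvent controls.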
Take ASAP1 isoform 2 (UniProt Q9ULH1): the log2 fold change was inactive: -0.024.
On the same count and under the same terms, the same measure for APOBEC3G (UniProt Q9HC16): inactive: -0.053; for AP5Z1 (UniProt O43299): inactive: -0.097.
Same read-out and setting: as for ARIH1 (UniProt Q9Y4X5), the figure is inactive: 0.008; as for ARHGEF10 (UniProt O15013), inactive: -0.041.
On the same count and under the same terms, the same measure for APOOL (UniProt Q6UXV4): inactive: 0.001.
For ARFGEF2 (UniProt Q9Y6D5), the log2 fold change is inactive: -0.016.
For the target ARRDC1 (UniProt Q8N5I2), the log2 fold change was inactive: -0.009.
As for ARID2 (UniProt Q68CP9), the log2 fold change was inactive: -0.017.
Still for that read-out and setting: as for ARV1 (UniProt Q9H2C2), the figure is inactive: -0.1.
Still for that read-out and setting: the same measure for APTX (UniProt Q7Z2E3): inactive: -0.074; for APIP (UniProt Q96GX9): inactive: -0.031; for ARMCX3 (UniProt Q9UH62): inactive: -0.058.
Same read-out and setting: the same measure for ARSA (UniProt P15289): inactive: 0.016; for ARHGAP18 (UniProt Q8N392): inactive: -0.023.
As to APLP2 (UniProt Q06481), the log2 fold change was inactive: -0.05.
Same read-out and setting: the same measure for AP4S1 (UniProt Q9Y587): inactive: 0.028.
Turning to ARL6IP1 (UniProt Q15041), the log2 fold change was inactive: -0.031.
With ARHGAP5 (UniProt Q13017), the log2 fold change is inactive: -0.019.
Regarding APPL1 (UniProt Q9UKG1), the log2 fold change is inactive: -0.032.
As for ARID1B isoform 3 (UniProt Q8NFD5), the log2 fold change is inactive: -0.022.
Still for that read-out and setting: the same measure for ARHGEF11 isoform 2 (UniProt O15085): inactive: -0.005; for ARFGEF1 (UniProt Q9Y6D6): inactive: -0.022; for ARID4B (UniProt Q4LE39): inactive: -0.023.
The same measure, in the same setting: the same measure for ARAF (UniProt P10398): inactive: -0.019.
Same read-out and setting: the same measure for APAF1 (UniProt O14727): inactive: 0.022; for ARFGAP3 (UniProt Q9NP61): inactive: 0.037; for ARHGAP21 (UniProt Q5T5U3): inactive: 0.081.
On to APMAP (UniProt Q9HDC9), for which the log2 fold change was inactive: -0.017.
On to AP5M1 (UniProt Q9H0R1), for which the log2 fold change is inactive: 0.019.
The same measure, in the same setting: as for APOBEC3C (UniProt Q9NRW3), the figure is inactive: 0.011; as for APOC1 (UniProt P02654), inactive: 0.068.
Turning to ARFIP1 (UniProt P53367), the log2 fold change was inactive: 0.009.

Compound in the next test: CS(=O)(=O)N1CCN(Cc2cc3nc(-c4cccc5[nH]ncc45)nc(N4CCOCC4)c3s2)CC1 [pictilisib]
The test is described as above. In a few lines:
as §1
As to ASAP1 isoform 2 (UniProt Q9ULH1), the log2 fold change is inactive: -0.026.
The same measure, in the same setting: the same measure for APOBEC3G (UniProt Q9HC16): inactive: -0.149; for AP5Z1 (UniProt O43299): inactive: -0.037; for ARIH1 (UniProt Q9Y4X5): inactive: 0.005.
On the same count and under the same terms, as for ARHGEF10 (UniProt O15013), the figure is inactive: 0.151.
For APOOL (UniProt Q6UXV4), the log2 fold change was inactive: 0.031.
The same measure, in the same setting: as for ARFGEF2 (UniProt Q9Y6D5), the figure is inactive: 0.009; as for ARRDC1 (UniProt Q8N5I2), inactive: -0.111; as for ARID2 (UniProt Q68CP9), inactive: -0.139.
For ARV1 (UniProt Q9H2C2), the log2 fold change is inactive: 0.023.
With APTX (UniProt Q7Z2E3), the log2 fold change was inactive: -0.017.
Regarding APIP (UniProt Q96GX9), the log2 fold change was inactive: 0.008.
The same measure, in the same setting: as for ARMCX3 (UniProt Q9UH62), the figure is inactive: 0.005; as for ARSA (UniProt P15289), inactive: -0.018.
Same read-out and setting: the same measure for ARHGAP18 (UniProt Q8N392): inactive: -0.024; for APLP2 (UniProt Q06481): inactive: -0.018; for AP4S1 (UniProt Q9Y587): inactive: -0.014.
Still for that read-out and setting: the same measure for ARL6IP1 (UniProt Q15041): inactive: 0.177; for ARHGAP5 (UniProt Q13017): inactive: -0.053; for APPL1 (UniProt Q9UKG1): inactive: -0.011.
With ARID1B isoform 3 (UniProt Q8NFD5), the log2 fold change is inactive: -0.056.
As for ARHGEF11 isoform 2 (UniProt O15085), the log2 fold change is inactive: -0.018.
ARFGEF1 (UniProt Q9Y6D6): the log2 fold change was inactive: -0.027.
On the same count and under the same terms, as for ARID4B (UniProt Q4LE39), the figure is inactive: -0.001; as for ARAF (UniProt P10398), inactive: 0.011; as for APAF1 (UniProt O14727), inactive: -0.068.
Still for that read-out and setting: the same measure for ARFGAP3 (UniProt Q9NP61): inactive: 0.037; for ARHGAP21 (UniProt Q5T5U3): inactive: -0.116.
Turning to APMAP (UniProt Q9HDC9), the log2 fold change was inactive: -0.018.
With AP5M1 (UniProt Q9H0R1), the log2 fold change was inactive: -0.448.
For the target APOBEC3C (UniProt Q9NRW3), the log2 fold change is inactive: 0.033.
For the target APOC1 (UniProt P02654), the log2 fold change is inactive: 0.09.
The same measure, in the same setting: as for ARFIP1 (UniProt P53367), the figure is inactive: -0.018.

Compound in a further test: C[C@@H](Oc1cc(-c2cnn(C3CCNCC3)c2)cnc1N)c1c(Cl)ccc(F)c1Cl [crizotinib]
The test is described as above. In outline: as §1
On to ASAP1 isoform 2 (UniProt Q9ULH1), for which the log2 fold change is inactive: -0.016.
For APOBEC3G (UniProt Q9HC16), the log2 fold change was inactive: -0.056.
Still for that read-out and setting: the same measure for AP5Z1 (UniProt O43299): inactive: -0.039.
The same measure, in the same setting: the same measure for ARIH1 (UniProt Q9Y4X5): inactive: -0.006; for ARHGEF10 (UniProt O15013): inactive: -0.009; for APOOL (UniProt Q6UXV4): inactive: 0.005.
Turning to ARFGEF2 (UniProt Q9Y6D5), the log2 fold change was inactive: -0.024.
For ARRDC1 (UniProt Q8N5I2), the log2 fold change is inactive: -0.184.
Regarding ARID2 (UniProt Q68CP9), the log2 fold change was inactive: -0.036.
For ARV1 (UniProt Q9H2C2), the log2 fold change was inactive: 0.077.
Still for that read-out and setting: as for APTX (UniProt Q7Z2E3), the figure is inactive: -0.017; as for APIP (UniProt Q96GX9), inactive: -0.007.
On to ARMCX3 (UniProt Q9UH62), for which the log2 fold change was inactive: -0.076.
Turning to ARSA (UniProt P15289), the log2 fold change was inactive: -0.002.
Still for that read-out and setting: as for ARHGAP18 (UniProt Q8N392), the figure is inactive: -0.05; as for APLP2 (UniProt Q06481), inactive: -0.001; as for AP4S1 (UniProt Q9Y587), inactive: 0.014.
For the target ARL6IP1 (UniProt Q15041), the log2 fold change was inactive: 0.034.
As for ARHGAP5 (UniProt Q13017), the log2 fold change was inactive: -0.047.
Still for that read-out and setting: as for APPL1 (UniProt Q9UKG1), the figure is inactive: -0.054; as for ARID1B isoform 3 (UniProt Q8NFD5), inactive: -0.006.
As for ARHGEF11 isoform 2 (UniProt O15085), the log2 fold change is inactive: -0.006.
The same measure, in the same setting: the same measure for ARFGEF1 (UniProt Q9Y6D6): inactive: -0.05.
Same read-out and setting: the same measure for ARID4B (UniProt Q4LE39): inactive: 0.024; for ARAF (UniProt P10398): inactive: -0.041; for APAF1 (UniProt O14727): inactive: -0.09.
As to ARFGAP3 (UniProt Q9NP61), the log2 fold change was inactive: 0.054.
On the same count and under the same terms, the same measure for ARHGAP21 (UniProt Q5T5U3): inactive: -0.073; for APMAP (UniProt Q9HDC9): inactive: 0.002.
With AP5M1 (UniProt Q9H0R1), the log2 fold change is inactive: -0.029.
The same measure, in the same setting: the same measure for APOBEC3C (UniProt Q9NRW3): inactive: -0.09.
The same measure, in the same setting: as for APOC1 (UniProt P02654), the figure is inactive: 0.146.
Regarding ARFIP1 (UniProt P53367), the log2 fold change was inactive: -0.026.
